The other results are listed elsewhere or left out.
Compound: C1=CC=C(C=C1)[C@H](COC2=CC3=C(C=C2)NC(=O)N3)NC(=O)C4=CC=CN(C4=O)CC5=CC(=C(C=C5)F)F
Assay: log2 fold change, soluble protein after heating vs DMSO (PISA); higher = thermal stabilisation; K562 lysate, 10 uM; active = over 0.2 and 3.5 SD of the protein, either way, in both replicates (recomputed)
How it was run: (§1)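 Quantification was by TMTpro 16plex LC-MS/MS with equalised channel sums, applied to the supernatant after 21,000xg for 90 min. Samples were crude K562 extract at 1 mg/mL protein in PBS pH 7.4 with 1 mM MgCl2, treated with 10 μM compound for 30 min, heated for 3 min across 48°C-58°C, pooled and brought to 0.5% NP-40 at 4°C. Values are log-two fold changes in thermal stability relative to solvent controls, from duplicates.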

Sequences of proteins named here, by UniProt entry; tags and fusion partners are left off. A change or cut given only in a name is not applied to a line headed by its entry.
UniProt P30154, whole entry, looked up: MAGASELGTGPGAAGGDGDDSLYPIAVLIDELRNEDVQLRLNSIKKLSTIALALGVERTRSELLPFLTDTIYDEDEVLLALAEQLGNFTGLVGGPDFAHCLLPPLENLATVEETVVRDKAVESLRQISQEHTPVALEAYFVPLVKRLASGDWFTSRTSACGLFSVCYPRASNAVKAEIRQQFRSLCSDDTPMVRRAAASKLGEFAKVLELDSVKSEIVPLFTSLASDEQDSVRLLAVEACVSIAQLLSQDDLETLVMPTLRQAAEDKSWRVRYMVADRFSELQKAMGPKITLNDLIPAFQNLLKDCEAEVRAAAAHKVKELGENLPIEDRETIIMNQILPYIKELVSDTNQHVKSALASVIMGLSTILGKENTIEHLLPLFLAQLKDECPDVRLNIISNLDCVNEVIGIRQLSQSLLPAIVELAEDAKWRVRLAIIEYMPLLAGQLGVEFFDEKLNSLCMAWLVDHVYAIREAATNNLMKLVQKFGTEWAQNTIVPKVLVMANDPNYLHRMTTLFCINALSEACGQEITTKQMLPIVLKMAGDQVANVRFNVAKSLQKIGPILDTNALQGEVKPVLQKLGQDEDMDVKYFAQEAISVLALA
UniProt P63098, whole entry, looked up: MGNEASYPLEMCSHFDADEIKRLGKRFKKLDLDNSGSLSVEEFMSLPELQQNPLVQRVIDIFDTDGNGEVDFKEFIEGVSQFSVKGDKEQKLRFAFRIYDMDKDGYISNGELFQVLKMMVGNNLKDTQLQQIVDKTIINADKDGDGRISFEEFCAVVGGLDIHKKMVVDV
UniProt Q8WY54: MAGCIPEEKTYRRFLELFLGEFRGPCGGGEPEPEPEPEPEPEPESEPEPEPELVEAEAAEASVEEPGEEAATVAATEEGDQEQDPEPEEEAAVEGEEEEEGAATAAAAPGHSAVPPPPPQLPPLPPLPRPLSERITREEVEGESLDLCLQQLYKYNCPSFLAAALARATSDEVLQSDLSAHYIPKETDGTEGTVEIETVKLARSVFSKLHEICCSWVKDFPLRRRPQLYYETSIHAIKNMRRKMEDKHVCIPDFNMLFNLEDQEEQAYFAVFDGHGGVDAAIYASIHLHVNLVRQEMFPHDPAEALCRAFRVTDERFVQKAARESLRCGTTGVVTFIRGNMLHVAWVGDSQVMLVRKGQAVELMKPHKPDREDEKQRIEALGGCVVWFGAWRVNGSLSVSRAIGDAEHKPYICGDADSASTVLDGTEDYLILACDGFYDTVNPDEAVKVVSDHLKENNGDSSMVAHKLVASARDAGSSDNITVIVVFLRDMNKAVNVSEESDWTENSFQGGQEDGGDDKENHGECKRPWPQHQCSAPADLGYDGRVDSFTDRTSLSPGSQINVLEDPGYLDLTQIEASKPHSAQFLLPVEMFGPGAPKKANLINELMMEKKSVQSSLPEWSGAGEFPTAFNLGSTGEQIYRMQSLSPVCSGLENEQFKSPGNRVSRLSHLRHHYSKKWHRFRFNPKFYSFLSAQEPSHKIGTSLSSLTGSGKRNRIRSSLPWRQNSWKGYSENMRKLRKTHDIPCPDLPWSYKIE
UniProt Q86UA1: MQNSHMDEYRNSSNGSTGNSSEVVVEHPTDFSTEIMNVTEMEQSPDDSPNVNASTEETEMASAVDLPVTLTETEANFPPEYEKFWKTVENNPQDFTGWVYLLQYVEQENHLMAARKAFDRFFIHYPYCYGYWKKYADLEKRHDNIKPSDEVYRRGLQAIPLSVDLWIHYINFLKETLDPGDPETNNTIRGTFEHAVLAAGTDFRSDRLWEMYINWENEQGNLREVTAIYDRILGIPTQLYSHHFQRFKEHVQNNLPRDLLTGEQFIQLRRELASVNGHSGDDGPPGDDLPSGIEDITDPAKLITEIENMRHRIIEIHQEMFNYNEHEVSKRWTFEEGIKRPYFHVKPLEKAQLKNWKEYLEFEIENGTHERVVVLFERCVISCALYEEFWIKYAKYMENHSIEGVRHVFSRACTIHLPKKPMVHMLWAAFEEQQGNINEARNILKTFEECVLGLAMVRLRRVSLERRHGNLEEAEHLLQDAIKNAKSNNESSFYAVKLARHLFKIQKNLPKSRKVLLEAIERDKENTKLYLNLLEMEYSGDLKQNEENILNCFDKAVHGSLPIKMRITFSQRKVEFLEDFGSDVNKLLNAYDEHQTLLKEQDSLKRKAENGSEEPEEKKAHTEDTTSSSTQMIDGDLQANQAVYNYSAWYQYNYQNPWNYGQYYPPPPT
UniProt P30044: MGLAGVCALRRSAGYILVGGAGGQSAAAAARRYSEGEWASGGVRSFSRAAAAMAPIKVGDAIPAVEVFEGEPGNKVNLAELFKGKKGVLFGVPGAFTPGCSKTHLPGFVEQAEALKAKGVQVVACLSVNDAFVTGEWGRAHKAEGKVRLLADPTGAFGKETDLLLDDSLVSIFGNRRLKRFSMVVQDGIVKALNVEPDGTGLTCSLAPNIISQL
UniProt Q9NVM4: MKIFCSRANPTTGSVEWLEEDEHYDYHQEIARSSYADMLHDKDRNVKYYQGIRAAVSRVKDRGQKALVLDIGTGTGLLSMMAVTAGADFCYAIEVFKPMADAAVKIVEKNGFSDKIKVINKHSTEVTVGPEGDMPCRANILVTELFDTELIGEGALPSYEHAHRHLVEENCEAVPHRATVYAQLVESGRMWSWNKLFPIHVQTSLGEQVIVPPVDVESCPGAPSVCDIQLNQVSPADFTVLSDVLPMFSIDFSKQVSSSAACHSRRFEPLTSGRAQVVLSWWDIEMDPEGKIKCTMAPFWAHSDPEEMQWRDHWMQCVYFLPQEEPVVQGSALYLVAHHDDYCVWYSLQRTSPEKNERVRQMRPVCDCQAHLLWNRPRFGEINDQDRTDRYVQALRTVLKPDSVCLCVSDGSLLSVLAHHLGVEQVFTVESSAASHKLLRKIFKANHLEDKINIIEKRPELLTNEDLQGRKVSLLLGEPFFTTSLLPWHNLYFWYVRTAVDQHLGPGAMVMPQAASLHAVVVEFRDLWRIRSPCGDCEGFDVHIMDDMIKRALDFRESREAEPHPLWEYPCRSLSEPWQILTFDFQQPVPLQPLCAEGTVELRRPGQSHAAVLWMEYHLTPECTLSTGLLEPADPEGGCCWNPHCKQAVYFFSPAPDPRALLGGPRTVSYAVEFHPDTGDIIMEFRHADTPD
UniProt Q13162: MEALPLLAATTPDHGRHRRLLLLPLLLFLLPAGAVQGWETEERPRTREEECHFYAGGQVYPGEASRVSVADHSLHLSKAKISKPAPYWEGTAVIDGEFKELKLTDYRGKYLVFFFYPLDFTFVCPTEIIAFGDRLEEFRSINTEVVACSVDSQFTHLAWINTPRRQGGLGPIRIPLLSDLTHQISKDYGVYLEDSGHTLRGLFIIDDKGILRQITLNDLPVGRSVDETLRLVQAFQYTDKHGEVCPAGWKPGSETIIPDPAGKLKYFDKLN
UniProt P62714, whole entry, looked up: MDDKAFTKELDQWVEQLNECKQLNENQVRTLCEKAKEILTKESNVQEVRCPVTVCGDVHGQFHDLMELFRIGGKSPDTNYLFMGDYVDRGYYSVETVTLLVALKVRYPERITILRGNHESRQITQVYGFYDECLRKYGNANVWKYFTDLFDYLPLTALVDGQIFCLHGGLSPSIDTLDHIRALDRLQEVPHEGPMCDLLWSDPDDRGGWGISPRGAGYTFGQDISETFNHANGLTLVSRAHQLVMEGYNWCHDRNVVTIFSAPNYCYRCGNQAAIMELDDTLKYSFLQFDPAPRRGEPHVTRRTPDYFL
UniProt Q15173: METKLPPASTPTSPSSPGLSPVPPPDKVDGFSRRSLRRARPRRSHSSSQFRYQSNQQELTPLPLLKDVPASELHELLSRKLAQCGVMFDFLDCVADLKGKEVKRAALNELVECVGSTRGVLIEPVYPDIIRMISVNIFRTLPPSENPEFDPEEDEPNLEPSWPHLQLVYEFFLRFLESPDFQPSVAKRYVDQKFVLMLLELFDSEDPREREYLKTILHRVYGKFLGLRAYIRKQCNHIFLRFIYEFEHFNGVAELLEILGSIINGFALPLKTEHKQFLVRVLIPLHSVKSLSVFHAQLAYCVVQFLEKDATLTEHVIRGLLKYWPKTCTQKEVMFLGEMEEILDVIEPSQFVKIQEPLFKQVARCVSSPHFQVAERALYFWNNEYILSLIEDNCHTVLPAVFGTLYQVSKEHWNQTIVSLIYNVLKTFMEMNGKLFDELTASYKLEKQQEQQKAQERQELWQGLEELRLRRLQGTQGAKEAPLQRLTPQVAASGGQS
UniProt Q04759: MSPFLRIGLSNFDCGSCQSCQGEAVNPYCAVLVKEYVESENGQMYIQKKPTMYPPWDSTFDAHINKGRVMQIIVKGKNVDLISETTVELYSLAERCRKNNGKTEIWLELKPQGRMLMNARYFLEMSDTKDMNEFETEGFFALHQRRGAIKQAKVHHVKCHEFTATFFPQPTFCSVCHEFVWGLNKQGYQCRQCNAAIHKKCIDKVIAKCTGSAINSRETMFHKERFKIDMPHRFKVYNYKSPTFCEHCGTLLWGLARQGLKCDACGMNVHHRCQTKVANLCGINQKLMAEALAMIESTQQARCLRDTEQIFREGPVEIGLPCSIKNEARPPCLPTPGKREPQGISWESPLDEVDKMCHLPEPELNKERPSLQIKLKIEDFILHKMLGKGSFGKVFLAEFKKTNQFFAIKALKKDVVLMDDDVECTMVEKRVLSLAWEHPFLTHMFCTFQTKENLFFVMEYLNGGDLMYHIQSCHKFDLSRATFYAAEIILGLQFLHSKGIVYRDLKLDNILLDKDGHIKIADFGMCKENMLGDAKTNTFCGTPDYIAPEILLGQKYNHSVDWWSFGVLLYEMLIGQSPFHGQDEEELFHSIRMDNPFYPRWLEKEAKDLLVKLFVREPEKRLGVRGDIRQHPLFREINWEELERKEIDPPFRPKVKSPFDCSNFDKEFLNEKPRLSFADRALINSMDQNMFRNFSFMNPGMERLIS
UniProt Q86WR7: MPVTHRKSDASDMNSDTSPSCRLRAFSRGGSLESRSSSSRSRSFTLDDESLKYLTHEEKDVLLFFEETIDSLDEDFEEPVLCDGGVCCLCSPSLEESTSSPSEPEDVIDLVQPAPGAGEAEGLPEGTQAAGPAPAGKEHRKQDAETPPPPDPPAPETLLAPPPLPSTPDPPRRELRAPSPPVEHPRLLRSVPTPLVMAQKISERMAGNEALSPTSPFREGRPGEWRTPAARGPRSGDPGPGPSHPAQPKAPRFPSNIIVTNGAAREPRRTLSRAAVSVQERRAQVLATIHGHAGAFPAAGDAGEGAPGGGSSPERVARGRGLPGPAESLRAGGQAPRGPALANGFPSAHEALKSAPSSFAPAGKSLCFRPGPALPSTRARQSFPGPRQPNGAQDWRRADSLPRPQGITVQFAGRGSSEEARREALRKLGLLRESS
UniProt P07225: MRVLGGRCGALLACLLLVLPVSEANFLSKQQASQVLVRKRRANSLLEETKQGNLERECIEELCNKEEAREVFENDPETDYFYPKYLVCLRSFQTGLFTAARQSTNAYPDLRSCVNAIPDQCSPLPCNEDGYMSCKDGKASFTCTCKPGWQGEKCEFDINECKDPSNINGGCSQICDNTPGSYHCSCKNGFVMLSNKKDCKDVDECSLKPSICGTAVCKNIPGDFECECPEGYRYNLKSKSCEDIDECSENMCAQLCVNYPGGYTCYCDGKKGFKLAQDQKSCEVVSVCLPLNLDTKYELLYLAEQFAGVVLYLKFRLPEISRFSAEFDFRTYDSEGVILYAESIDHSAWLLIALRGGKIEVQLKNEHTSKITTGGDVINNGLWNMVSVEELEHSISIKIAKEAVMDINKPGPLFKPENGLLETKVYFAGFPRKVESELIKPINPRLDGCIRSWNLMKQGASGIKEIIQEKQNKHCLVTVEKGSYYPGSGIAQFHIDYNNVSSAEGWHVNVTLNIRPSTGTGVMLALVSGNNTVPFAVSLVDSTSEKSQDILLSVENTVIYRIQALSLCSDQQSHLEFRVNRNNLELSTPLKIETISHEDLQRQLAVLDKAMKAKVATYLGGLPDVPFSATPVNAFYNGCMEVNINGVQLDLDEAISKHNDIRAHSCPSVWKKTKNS
UniProt P50897: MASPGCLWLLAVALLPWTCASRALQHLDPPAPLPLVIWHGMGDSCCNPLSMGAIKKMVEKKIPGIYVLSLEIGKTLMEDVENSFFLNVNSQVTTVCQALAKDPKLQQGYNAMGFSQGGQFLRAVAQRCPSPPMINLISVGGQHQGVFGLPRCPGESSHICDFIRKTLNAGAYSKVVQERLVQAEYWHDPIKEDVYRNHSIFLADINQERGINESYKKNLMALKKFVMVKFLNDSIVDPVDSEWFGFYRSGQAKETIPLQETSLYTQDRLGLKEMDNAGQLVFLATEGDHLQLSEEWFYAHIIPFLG
UniProt Q8TAE6: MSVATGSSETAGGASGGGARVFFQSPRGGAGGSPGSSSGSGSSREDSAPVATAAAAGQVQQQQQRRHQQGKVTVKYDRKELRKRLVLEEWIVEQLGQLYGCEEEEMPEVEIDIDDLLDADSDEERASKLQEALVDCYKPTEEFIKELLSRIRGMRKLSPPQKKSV

Target	log2 fold change
PPP2R1B isoform 2 (UniProt P30154)	inactive: -0.023
PRKAA1 isoform 2 (UniProt Q13131)	inactive: 0.007
PPP2R2A isoform 2 (UniProt P63151)	inactive: 0.015
PPP3R1 (UniProt P63098)	inactive: 0.012
PPP4R3A (UniProt Q6IN85)	inactive: -0.004
PPM1E (UniProt Q8WY54)	inactive: 0.008
PRKAB2 (UniProt O43741)	inactive: 0.1
PRKD2 isoform 3 (UniProt Q9BZL6)	inactive: 0.001
PRMT3 (UniProt O60678)	inactive: -0.002
PRPF39 (UniProt Q86UA1)	inactive: -0.015
PRDX5 (UniProt P30044)	inactive: -0.017
PRMT7 (UniProt Q9NVM4)	inactive: -0.002
PRDX4 (UniProt Q13162)	inactive: 0.014
PPP2CB (UniProt P62714)	inactive: -0.002
PRPF31 (UniProt Q8WWY3)	inactive: 0.075
PPP2R5B (UniProt Q15173)	inactive: -0.08
PRKCQ (UniProt Q04759)	inactive: 0.004

Target	log2 fold change
PPP4C (UniProt P60510)	inactive: 0.027
PPP6C isoform 3 (UniProt O00743)	inactive: 0.009
PRAME (UniProt P78395)	inactive: -0.009
PROSER2 (UniProt Q86WR7)	inactive: 0.017
PRKCSH (UniProt K7ELL7)	inactive: 0.045
PROS1 (UniProt P07225)	inactive: 0.008
PPP3CB (UniProt P16298)	inactive: 0.063
PPP6R2 isoform 5 (UniProt O75170)	inactive: 0.024
PPP1R14B (UniProt Q96C90)	inactive: 0.033
PRKACA (UniProt P17612)	inactive: 0.029
PPP4R1 (UniProt Q8TF05)	inactive: -0.018
PRMT2 (UniProt P55345)	inactive: -0.031
PPP5C (UniProt P53041)	inactive: 0.012
PRPF6 (UniProt O94906)	inactive: -0.006
PPT1 (UniProt P50897)	inactive: -0.022
PPP1R14C (UniProt Q8TAE6)	inactive: -0.019

Compound: CC1=C(SC2=C1C(=N[C@H](C3=NN=C(N32)C)CC(=O)N)C4=CC=C(C=C4)Cl)C
Assay: as above
How it was run: as §1

Target	log2 fold change
PPP2R1B isoform 2 (UniProt P30154)	inactive: -0.033
PRKAA1 isoform 2 (UniProt Q13131)	inactive: -0.032
PPP2R2A isoform 2 (UniProt P63151)	inactive: 0.016
PPP3R1 (UniProt P63098)	inactive: -0.037
PPP4R3A (UniProt Q6IN85)	inactive: 0.029
PPM1E (UniProt Q8WY54)	inactive: -0.033
PRKAB2 (UniProt O43741)	inactive: -0.012
PRKD2 isoform 3 (UniProt Q9BZL6)	inactive: -0.031
PRMT3 (UniProt O60678)	inactive: -0.008
PRPF39 (UniProt Q86UA1)	inactive: 0.013
PRDX5 (UniProt P30044)	inactive: -0.024
PRMT7 (UniProt Q9NVM4)	inactive: -0.029
PRDX4 (UniProt Q13162)	inactive: 0
PPP2CB (UniProt P62714)	inactive: -0.003
PRPF31 (UniProt Q8WWY3)	inactive: -0.023
PPP2R5B (UniProt Q15173)	inactive: -0.037
PRKCQ (UniProt Q04759)	inactive: -0.003

Target	log2 fold change
PPP4C (UniProt P60510)	inactive: 0.031
PPP6C isoform 3 (UniProt O00743)	inactive: -0.007
PRAME (UniProt P78395)	inactive: 0.014
PROSER2 (UniProt Q86WR7)	inactive: -0.003
PRKCSH (UniProt K7ELL7)	inactive: -0.027
PROS1 (UniProt P07225)	inactive: -0.007
PPP3CB (UniProt P16298)	inactive: 0.043
PPP6R2 isoform 5 (UniProt O75170)	inactive: 0.058
PPP1R14B (UniProt Q96C90)	inactive: -0.011
PRKACA (UniProt P17612)	inactive: 0.019
PPP4R1 (UniProt Q8TF05)	inactive: 0.022
PRMT2 (UniProt P55345)	inactive: 0.037
PPP5C (UniProt P53041)	inactive: 0.026
PRPF6 (UniProt O94906)	inactive: 0.015
PPT1 (UniProt P50897)	inactive: -0.001
PPP1R14C (UniProt Q8TAE6)	inactive: 0.024

Compound: CC1=C2C(=CC=C1)N=C(N(C2=O)C3=CC=CC=C3C)CN4C=NC5=C(N=CN=C54)N
Assay: as above
How it was run: as §1

Target	log2 fold change
PPP2R1B isoform 2 (UniProt P30154)	inactive: -0.022
PRKAA1 isoform 2 (UniProt Q13131)	inactive: -0.016
PPP2R2A isoform 2 (UniProt P63151)	inactive: 0.019
PPP3R1 (UniProt P63098)	inactive: -0.032
PPP4R3A (UniProt Q6IN85)	inactive: 0.018
PPM1E (UniProt Q8WY54)	inactive: -0.037
PRKAB2 (UniProt O43741)	inactive: 0.009
PRKD2 isoform 3 (UniProt Q9BZL6)	inactive: 0.121
PRMT3 (UniProt O60678)	inactive: 0.018
PRPF39 (UniProt Q86UA1)	inactive: -0.053
PRDX5 (UniProt P30044)	inactive: -0.011
PRMT7 (UniProt Q9NVM4)	inactive: 0.009
PRDX4 (UniProt Q13162)	inactive: 0.007
PPP2CB (UniProt P62714)	inactive: -0.014
PRPF31 (UniProt Q8WWY3)	inactive: -0.015
PPP2R5B (UniProt Q15173)	inactive: -0.024
PRKCQ (UniProt Q04759)	inactive: 0.066

Target	log2 fold change
PPP4C (UniProt P60510)	inactive: 0.009
PPP6C isoform 3 (UniProt O00743)	inactive: 0.007
PRAME (UniProt P78395)	inactive: 0.014
PROSER2 (UniProt Q86WR7)	inactive: -0.008
PRKCSH (UniProt K7ELL7)	inactive: -0.157
PROS1 (UniProt P07225)	inactive: 0.001
PPP3CB (UniProt P16298)	inactive: 0.026
PPP6R2 isoform 5 (UniProt O75170)	inactive: -0.005
PPP1R14B (UniProt Q96C90)	inactive: -0.016
PRKACA (UniProt P17612)	inactive: 0.008
PPP4R1 (UniProt Q8TF05)	inactive: 0.023
PRMT2 (UniProt P55345)	inactive: 0.123
PPP5C (UniProt P53041)	inactive: -0.006
PRPF6 (UniProt O94906)	inactive: -0.012
PPT1 (UniProt P50897)	inactive: -0.017
PPP1R14C (UniProt Q8TAE6)	inactive: 0.051
